Reference: patent US7098240B2, “Compounds” (AstraZeneca AB, priority 2001, dated 2006)
Some results were stated once for a whole list of compounds, not compound by compound.

biological target: T1, IKK2 (Homo sapiens, UniProt O14920); assay: IKK2 filter kinase assay; format: biochemical; details: 1 μM ATP, 1-53 GST-IκB substrate, 21° C. for 80 minutes, read-out: IC50 for inhibition of IKK2
T1 sequence (O14920 1-756): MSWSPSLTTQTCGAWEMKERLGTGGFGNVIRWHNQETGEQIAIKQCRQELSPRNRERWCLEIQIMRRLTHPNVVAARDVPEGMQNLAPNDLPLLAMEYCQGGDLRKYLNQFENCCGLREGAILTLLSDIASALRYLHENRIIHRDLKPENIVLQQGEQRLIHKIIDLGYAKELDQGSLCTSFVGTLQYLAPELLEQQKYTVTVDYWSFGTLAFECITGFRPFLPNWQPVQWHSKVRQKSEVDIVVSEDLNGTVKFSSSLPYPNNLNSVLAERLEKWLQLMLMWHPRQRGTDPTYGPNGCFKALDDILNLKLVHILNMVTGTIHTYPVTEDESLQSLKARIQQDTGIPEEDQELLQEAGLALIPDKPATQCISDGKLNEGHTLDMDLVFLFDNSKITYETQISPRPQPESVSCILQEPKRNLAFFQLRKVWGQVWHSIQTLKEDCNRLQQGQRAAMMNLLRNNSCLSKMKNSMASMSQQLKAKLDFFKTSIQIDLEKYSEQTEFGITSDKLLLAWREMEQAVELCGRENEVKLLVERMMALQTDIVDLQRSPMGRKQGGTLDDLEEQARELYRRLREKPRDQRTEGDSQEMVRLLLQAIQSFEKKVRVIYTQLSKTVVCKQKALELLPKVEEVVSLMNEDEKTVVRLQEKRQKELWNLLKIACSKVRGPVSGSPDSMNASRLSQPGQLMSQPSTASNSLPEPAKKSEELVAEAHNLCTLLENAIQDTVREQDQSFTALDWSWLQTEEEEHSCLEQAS

IC50, < 10 µM:
NC(=O)Nc1sc(-c2cc3ccccc3o2)cc1C(N)=O [Example 1, 2-[(Aminocarbonyl)amino]-5-(2-benzofuranyl)-3-thiophenecarboxamide]
NC(=O)Nc1sc(-c2cnc3ccccc3c2)cc1C(N)=O [Example 2, 2-[(Aminocarbonyl)amino]-5-(3-quinolinyl)-3-thiophenecarboxamide]
NC(=O)Nc1sc(-c2cccc3cccnc23)cc1C(N)=O [Example 3, 2-[(Aminocarbonyl)amino]-5-(8-quinolinyl)-3-thiophenecarboxamide]
NC(=O)Nc1sc(-c2cc3ccccc3s2)cc1C(N)=O [Example 4, 2-[(Aminocarbonyl)amino]-5-(2-benzothiophenyl)-3-thiophenecarboxamide]
NC(=O)Nc1sc(-c2csc3ccccc23)cc1C(N)=O [Example 5, 2-[(Aminocarbonyl)amino]-5-(3-benzothiophenyl)-3-thiophenecarboxamide]
NC(=O)Nc1sc(-c2ccc3[nH]ccc3c2)cc1C(N)=O [Example 6, 2-[(Aminocarbonyl)amino]-5-(5-indolyl)-3-thiophenecarboxamide]
Cc1c(-c2ccc3c(c2)OCCO3)sc(NC(N)=O)c1C(N)=O [Example 7, 2-[(Aminocarbonyl)amino]-4-methyl-5-(1-benzodioxan-6-yl)-3-thiophenecarboxamide]
Cc1c(-c2c[nH]c3ccccc23)sc(NC(N)=O)c1C(N)=O [Example 8, 2-[(Aminocarbonyl)amino]-4-methyl-5-(3-indolyl)-3-thiophenecarboxamide]
Cc1c(-c2ccc3c(c2)OCO3)sc(NC(N)=O)c1C(N)=O [Example 9, 2-[(Aminocarbonyl)amino]-4-methyl-5-(1,3-benzodioxolan-5-yl)-3-thiophenecarboxamide]
NC(=O)Nc1sc(-c2cc3ccccc3[nH]2)cc1C(N)=O [Example 10, 2-[(Aminocarbonyl)amino]-5-(1H-indol-2-yl)thiophene-3-carboxamide]
NC(=O)Nc1cc(-c2csc3ccccc23)sc1C(N)=O [Example 11, 3[-(Aminocarbonyl)amino]-5-(1-benzothien-3-yl)thiophene-2-carboxamide]
NC(=O)Nc1sc(-c2ccc3sc(CN4CCOCC4)cc3c2)cc1C(N)=O [Example 12, 2-[(Aminocarbonyl)amino]-5-(2-morpholin-4-ylmethylbenzo[b]thiophen-5-yl)thiophene-3-carboxamide]
NC(=O)Nc1sc(-c2cc3c(OCCN4CCOCC4)cccc3s2)cc1C(N)=O [Example 13, 2-[(Aminocarbonyl)amino]-5-[4-(2-morpholin-4-ylethoxy)-1-benzothien-2-yl]-3-thiophenecarboxamide]
Cc1ccc(S(=O)(=O)N2CCc3cc(-c4cc(C(N)=O)c(NC(N)=O)s4)ccc3C2)cc1 [Example 14, 2-[(Aminocarbonyl)amino]-5-{2-[4-methylphenylsulphonyl]-1.2,3,4-tetrahydroisoquinolin-6-yl}thiophene-3-carboxamide]
NC(=O)Nc1cc(-c2cc3ccccc3s2)sc1C(N)=O [Example 15, 3-[(Aminocarbonyl)amino]-5-(1-benzothien-2-yl)thiophene-2-carboxamide]
